These are yes or no findings as the source states them, for the method shown. Some results given as binding are weak or reduced against the parent protein; the word gives no strength.

The assay addresses DacA_(1–287) (Mycobacterium tuberculosis H37Rv) (UniProt P9WNW5). The assay is described as follows: SEC; gel filtration of the truncated proteins, data not shown; both purified. On the technique in general: Size exclusion chromatography separates by hydrodynamic size, large species first.

B1: DacA_(1–287) (domain or fragment)
chain: MHAVTRPTLREAVARLAPGTGLRDGLERILRGRTGALIVLGHDENVEAICDGGFSLDVRYAATRLRELCKMDGAVVLSTDGSRIVRANVQLVPDPSIPTDESGTRHRSAERAAIQTGYPVISVSHSMNIVTVYVRGERHVLTDSATILSRANQAIATLERYKTRLDEVSRQLSRAEIEDFVTLRDVMTVVQRLELVRRIGLVIDYDVVELGTDGRQLRLQLDELLGGNDTARELIVRDYHANPEPPSTGQINATLDELDALSDGDLLDFTALAKVFGYPTTTEAQDS
notes: also called first 287 aa of DacA; DacA lacking the C-terminal HhH domain
With B1, the binding entry is listed as “binds”.

(Values after article PMC3328451, “Mycobacterium tuberculosis Rv3586 (DacA) Is a Diadenylate Cyclase That Converts ATP or ADP into c-di-AMP” (PLoS ONE, 2012).)
